# Test results taken from PubChem BioAssay AID328 (DTP/NCI, 2004).
# The list is a part of this screen's results and no random one: it gathers tests that were run many times, whatever their T/C, doses with no T/C, and many T/C values between a quarter and a half above the control. Further doses and runs are listed elsewhere. T/C is the treated group as % of the vehicle group. Some doses have a count of surviving animals in place of a T/C: the source holds a T/C of zero for them, seemingly a mark for toxic or unscored doses. Some doses without a T/C left all or most animals alive at the check, yet need not have been tolerated: survival well below the control is almost never listed, so the zero probably covers shortened survival too. Survivors were counted at the toxicity check, usually on the fifth day, unless a day is given; later deaths do not show. Schedule codes are those of the source, taken here to give the interval after Q, in days (D) or hours (H), and the number of doses after X. Where survival is the endpoint, this PubChem deposit counts one and a half times the control or more as active, and values a quarter to a half above the control carry no call in these data; other NCI protocols may use other cut-offs. Some T/C values are followed by the survivors on the day toxicity was checked, most often the fifth; where none is given, no animal had died by that day. Some entries hold several experiments; the results are listed from low to high. Counts like (3×) say how often a value occurs here.
# Test system: BDF1 mice, P388 leukemia ip, median survival T/C
# Assay: NCI In Vivo Anticancer Drug Screen. Data for tumor model P388 Leukemia (intraperitoneal) in B6D2F1 (BDF1) mice
# Details: T/C endpoint: median survival time, higher T/C = longer survival
# Summary of the method: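 Antitumour effect was judged in vivo: survival in drug-treated mice, normalised to that of vehicle-dosed controls, gives the reported T/C.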
# [1] = dose: 100.0 mg/kg/injection, schedule: Q01DX010 (ip), vehicle: saline
# [2] = dose: 200.0 mg/kg/injection, schedule: Q04DX003 (ip), vehicle: saline
# [3] = dose: 400.0 mg/kg/injection, schedule: Q04DX003 (ip), vehicle: saline
# [4] = dose: 400.0 mg/kg/injection, schedule: Q04DX003 (ip), vehicle: other
# [5] = dose: 100.0 mg/kg/injection, schedule: Q04DX003 (ip), vehicle: saline
# [6] = dose: 25.0 mg/kg/injection, schedule: Q01DX009 (ip), vehicle: saline with Tween-80
# [7] = dose: 50.0 mg/kg/injection, schedule: Q01DX009 (ip), vehicle: saline with Tween-80
# [8] = dose: 200.0 mg/kg/injection, schedule: Q01DX009 (ip), vehicle: saline with Tween-80
# [9] = dose: 200.0 mg/kg/injection, schedule: Q04DX003 (ip), vehicle: saline with Tween-80
# [10] = dose: 400.0 mg/kg/injection, schedule: Q04DX003 (ip), vehicle: saline with Tween-80
compound,measurement,setting,value
O=c1[nH]c(=O)n(C2CC(O)C(CO)O2)cc1F (stereo not given),T/C,"dose: 5.0 mg/kg/injection, schedule: Q01DX010 (ip), vehicle: saline",127 % of control
same,T/C,"dose: 10.0 mg/kg/injection, schedule: Q01DX010 (ip), vehicle: saline, evaluated on day 30","122, 133, 145 % of control (2×)"
same,T/C,"dose: 10.0 mg/kg/injection, schedule: Q01DX010 (ip), vehicle: saline, run until all animals had died",154 % of control
same,T/C,"dose: 20.0 mg/kg/injection, schedule: Q01DX010 (ip), vehicle: saline, evaluated on day 30","141, 145, 150, 154 % of control"
same,T/C,"dose: 20.0 mg/kg/injection, schedule: Q01DX010 (ip), vehicle: saline, run until all animals had died",177 % of control
same,T/C,"dose: 40.0 mg/kg/injection, schedule: Q01DX010 (ip), vehicle: saline, evaluated on day 27",216 % of control
same,T/C,"dose: 40.0 mg/kg/injection, schedule: Q01DX010 (ip), vehicle: saline, evaluated on day 30","125, 126, 128 (2×), 138, 145, 145 [5 of 6 alive], 150 [5 of 6 alive], 154, 160, 168, 168 [5 of 6 alive], 172, 175, 177, 186 % of control"
same,T/C,"dose: 40.0 mg/kg/injection, schedule: Q01DX010 (ip), vehicle: saline, evaluated on day 33",190 and 209 % of control
same,T/C,"dose: 40.0 mg/kg/injection, schedule: Q01DX010 (ip), vehicle: saline, run until all animals had died",186 % of control
same,T/C,"dose: 40.0 mg/kg/injection, schedule: Q01DX010 (ip), vehicle: water","191, 200 (2×), 222 % of control"
same,T/C,"dose: 60.0 mg/kg/injection, schedule: Q01DX010 (ip), vehicle: saline, evaluated on day 27",205 % of control
same,T/C,"dose: 60.0 mg/kg/injection, schedule: Q01DX010 (ip), vehicle: saline, evaluated on day 30","132, 142, 146 (3×), 162, 168, 172, 175, 179, 180, 181, 195 % of control (2×)"
same,T/C,"dose: 60.0 mg/kg/injection, schedule: Q01DX010 (ip), vehicle: saline, evaluated on day 33",109 and 136 % of control
same,T/C,"dose: 60.0 mg/kg/injection, schedule: Q01DX010 (ip), vehicle: water","158, 205, 210, 250 % of control"
same,T/C,"dose: 75.0 mg/kg/injection, schedule: Q03HX024 (ip), vehicle: saline",132 % of control
same,T/C,"dose: 80.0 mg/kg/injection, schedule: Q01DX010 (ip), vehicle: saline, evaluated on day 27",188 % of control
same,T/C,"dose: 80.0 mg/kg/injection, schedule: Q01DX010 (ip), vehicle: saline, evaluated on day 30","118, 139, 150, 150 [5 of 6 alive], 153, 157, 162, 166, 181, 181 [5 of 6 alive], 186, 190 (2×), 191 % of control"
same,T/C,"dose: 80.0 mg/kg/injection, schedule: Q01DX010 (ip), vehicle: saline, evaluated on day 33",104 and 118 % of control
same,T/C,"dose: 80.0 mg/kg/injection, schedule: Q01DX010 (ip), vehicle: saline, run until all animals had died",259 % of control
same,T/C,"dose: 80.0 mg/kg/injection, schedule: Q01DX010 (ip), vehicle: water","105, 110, 166, 283 % of control"
same,T/C,"dose: 100.0 mg/kg/injection, schedule: Q01DX010 (ip), vehicle: saline, evaluated on day 27",105 % of control
same,T/C,"dose: 100.0 mg/kg/injection, schedule: Q01DX010 (ip), vehicle: saline, evaluated on day 30","92, 100, 108, 109, 109 [4 of 6 alive], 118, 121, 141, 153, 165, 190 [5 of 6 alive], 205, 231 % of control"
same,T/C,"dose: 100.0 mg/kg/injection, schedule: Q01DX010 (ip), vehicle: saline, evaluated on day 33",100 and 104 % of control
same,survivor count,[1],6 of 6
same,T/C,"dose: 100.0 mg/kg/injection, schedule: Q01DX010 (ip), vehicle: water","105, 191 [5 of 6 alive], 230, 250 % of control"
same,T/C,"dose: 103.0 mg/kg/injection, schedule: Q04DX004 (ip), vehicle: saline",143 % of control
same,T/C,"dose: 110.0 mg/kg/injection, schedule: Q01DX009 (ip), vehicle: saline","191, 192, 193, 230 % of control"
same,T/C,"dose: 305.0 mg/kg/injection, schedule: Q01DX001 (ip), vehicle: saline",142 % of control
same,T/C,"dose: 455.0 mg/kg/injection, schedule: Q01DX001 (ip), vehicle: saline",148 % of control
O.O.O=C(CC(=O)C(F)(F)F)C(F)(F)F.O=C(CC(=O)C(F)(F)F)C(F)(F)F.[Ni],T/C,"dose: 100.0 mg/kg/injection, schedule: Q01DX001 (ip), vehicle: Klucel (hydroxypropylcellulose) (HPC)",131 % of control [5 of 6 alive]
same,survivor count,"dose: 400.0 mg/kg/injection, schedule: Q01DX001 (ip), vehicle: Klucel (hydroxypropylcellulose) (HPC)",1 of 6
Cc1cccc(C)c1NC(=S)N(C)C,survivor count,[2],5 of 6
same,survivor count,[3],0 of 6
CCCCCCC/C=N/N=C/CCCCCCC,T/C,"dose: 200.0 mg/kg/injection, schedule: Q01DX009 (ip), vehicle: other",127 % of control
same,T/C,"dose: 266.0 mg/kg/injection, schedule: Q01DX009 (ip), vehicle: other",127 % of control [5 of 6 alive]
same,T/C,"dose: 400.0 mg/kg/injection, schedule: Q01DX009 (ip), vehicle: other",127 % of control
same,survivor count,[4],6 of 6
CC(C)CCCC(C)C1CCC2C3CC=C4CC([S+](C)C)CCC4(C)C3CCC12C (stereo not given),survivor count,"dose: 50.0 mg/kg/injection, schedule: Q01DX009 (ip), vehicle: saline",6 of 6
CC(N)COCc1ccccc1 (stereo not given),survivor count,[5],2 of 6
CS(=O)(=O)OCC(O)C(O)C(O)C(O)COS(C)(=O)=O (stereo not given),T/C,[1],129 % of control
same,T/C,"dose: 200.0 mg/kg/injection, schedule: Q01DX010 (ip), vehicle: saline",145 % of control
CC1(C)N=C(N)N=C(N)N1c1cccc(CCCCc2ccc(Cl)c(S(=O)(=O)F)c2)c1,T/C,"dose: 3.5 mg/kg/injection, schedule: Q01DX009 (ip), vehicle: saline",130 % of control
same,T/C,"dose: 6.25 mg/kg/injection, schedule: Q01DX009 (ip), vehicle: saline",129 % of control
same,T/C,"dose: 7.0 mg/kg/injection, schedule: Q01DX009 (ip), vehicle: saline",140 % of control
same,T/C,"dose: 12.5 mg/kg/injection, schedule: Q01DX009 (ip), vehicle: saline with Tween-80",145 % of control
same,T/C,[6],145 % of control
same,T/C,"dose: 28.0 mg/kg/injection, schedule: Q01DX009 (ip), vehicle: saline",140 % of control
same,survivor count,[7],3 of 6
COc1cc(O)c2c(c1)Cc1cc(C)cc(O)c1C2=O,survivor count,[6],6 of 6
O=[N+]([O-])/C=C/c1c(Cl)cccc1Cl,survivor count,"dose: 100.0 mg/kg/injection, schedule: Q04DX003 (ip), vehicle: other",5 of 6
same,survivor count,"dose: 200.0 mg/kg/injection, schedule: Q04DX003 (ip), vehicle: other",0 of 6
same,survivor count,[4],0 of 6
Cc1csc(/N=C/c2ccc([N+](=O)[O-])o2)n1,T/C,[7],140 % of control [5 of 6 alive]
same,survivor count,"dose: 100.0 mg/kg/injection, schedule: Q01DX009 (ip), vehicle: saline with Tween-80",4 of 6
same,survivor count,[8],0 of 6
same,survivor count,[9],4 of 6
same,survivor count,[10],1 of 6
CC(=O)OC(C(=O)N(c1ccccc1)c1ccccc1)c1ccccc1 (stereo not given),survivor count,[8],5 of 6
CCCCOC(=O)c1ccc(NC(=O)Nc2ccccc2OC)cc1,survivor count,[9],6 of 6
same,survivor count,[10],6 of 6
O=c1[nH][nH]c(=O)n1O,survivor count,"dose: 100.0 mg/kg/injection, schedule: Q01DX009 (ip), vehicle: saline",6 of 6
OCCC1(CCO)CCCCC1,survivor count,"dose: 80.0 mg/kg/injection, schedule: Q01DX009 (ip), vehicle: saline with Tween-80",6 of 6
same,survivor count,[9],0 of 6
CC(=O)CC(C)=O.CC(=O)CC(C)=O.CC(=O)CC(C)=O.[Ga],survivor count,"dose: 4.0 mg/kg/injection, schedule: Q01DX009 (ip), vehicle: other",6 of 6
same,survivor count,"dose: 8.0 mg/kg/injection, schedule: Q01DX009 (ip), vehicle: other",6 of 6
same,survivor count,"dose: 16.0 mg/kg/injection, schedule: Q01DX009 (ip), vehicle: other",6 of 6
same,survivor count,"dose: 32.0 mg/kg/injection, schedule: Q01DX009 (ip), vehicle: other",6 of 6
same,survivor count,[5],4 of 6
same,survivor count,[2],6 of 6
same,survivor count,[3],6 of 6
